{
  "source": "PubChem BioAssay AID1117326",
  "about": "(Cheminformatics & Chemogenomics Research Group (CCRG), …, 2015)",
  "note": "The list shows a part of the results.",
  "data": [
    {"assay": "Wnt pathway potentiators raising nuclear beta-catenin – imaging, WNT3A-conditioned medium, mouse C2C12, NPC library, primary screen (AID 1117326); note: reference of the scale not given here", "conditions": "at 2 µM, stronger effect = higher value", "units": {"nuclear beta-catenin stimulation": "%"}, "values": [
      {"compound": "CN(CCCl)CCCl", "nuclear beta-catenin stimulation": 12.4}
    ]}
  ]
}
